Assay results as given in article PMC9559323.
No constants are given. Whether binding was seen depends on the method and setting. Binding seen in cells or lysates may run through a third protein. For some assays here: A yes stands for co-enrichment or nearness to the bait. Other partners may have been found. For some assays here: No binding means not detected with the bait. For some assays here: Tags and fused reporters may be left off the sequences shown.

Legend:
[1] = target: translocated EspH_(Δ130-168) (SBP-tagged) (enteropathogenic Escherichia coli (EPEC)); experiment: affinity purification with mass spectrometry; HeLa cells infected 90 min at 37°C with EPEC strains; SBP-tagged translocated EspH precipitated from lysates (50 mM Tris pH 7.4, 150 mM NaCl, 0.5% NP-40) with StAv agarose beads, 4 hrs at 4°C; on-bead digestion, LC-MS/MS, label-free quantification
[2] = target: translocated EspH_(Δ130-168) (SBP-tagged) (enteropathogenic Escherichia coli (EPEC)); experiment: pull-down; HeLa (or Caco-2BBe) cells, untransfected or transfected with HA-tagged ABR constructs, infected with EPEC strains; SBP-tagged translocated EspH precipitated with StAv agarose beads; co-precipitated ABR detected by immunoblot (anti-ABR or anti-HA)
[3] = target: EspH_(Δ130-168)-eGFP (enteropathogenic Escherichia coli (EPEC)); experiment: co-IP; HeLa cells co-transfected with eGFP constructs and HA-tagged ABR; lysates (10 mM Tris pH 7.4, 150 mM NaCl, 0.5% NP-40) incubated with GFP-Trap agarose beads 4 hrs at 4°C; immunoblot with anti-eGFP and anti-HA

B1: Rab12 (protein, UniProt Q6IQ22 1-340)
chain: MLLPLLRSSCFPSSSPGGGGGSGGGGGGGDPGAESRPAAQLQRGAHGPPGPLQRAEAEPGADPPRAAEAEGAPGPGARSRGAGGGGRRAEREPHACMDPGAALQRRAGGGGGLGAGSPALSGGQGRRRKQPPRPADFKLQVIIIGSRGVGKTSLMERFTDDTFCEACKSTVGVDFKIKTVELRGKKIRLQIWDTAGQERFNSITSAYYRSAKGIILVYDITKKETFDDLPKWMKMIDKYASEDAELLLVGNKLDCETDREITRQQGEKFAQQITGMRFCEASAKDNFNVDEIFLKLVDDILKKMPLDILRNELSNSILSLQPEPEIPPELPPPRPHVRCC
binding [1]: binds

B2: endogenous active Bcr related (ABR) protein (protein, UniProt Q12979 1-859)
chain: MEPLSHRGLPRLSWIDTLYSNFSYGTDEYDGEGNEEQKGPPEGSETMPYIDESPTMSPQLSARSQGGGDGVSPTPPEGLAPGVEAGKGLEMRKLVLSGFLASEEIYINQLEALLLPMKPLKATATTSQPVLTIQQIETIFYKIQDIYEIHKEFYDNLCPKVQQWDSQVTMGHLFQKLASQLGVYKAFVDNYKVALETAEKCSQSNNQFQKISEELKVKGPKDSKDSHTSVTMEALLYKPIDRVTRSTLVLHDLLKHTPVDHPDYPLLQDALRISQNFLSSINEDIDPRRTAVTTPKGETRQLVKDGFLVEVSESSRKLRHVFLFTDVLLCAKLKKTSAGKHQQYDCKWYIPLADLVFPSPEESEASPQVHPFPDHELEDMKMKISALKSEIQKEKANKGQSRAIERLKKKMFENEFLLLLNSPTIPFRIHNRNGKSYLFLLSSDYERSEWREAIQKLQKKDLQAFVLSSVELQVLTGSCFKLRTVHNIPVTSNKDDDESPGLYGFLHVIVHSAKGFKQSANLYCTLEVDSFGYFVSKAKTRVFRDTAEPKWDEEFEIELEGSQSLRILCYEKCYDKTKVNKDNNEIVDKIMGKGQIQLDPQTVETKNWHTDVIEMNGIKVEFSMKFTSRDMSLKRTPSKKQTGVFGVKISVVTKRERSKVPYIVRQCVEEVEKRGIEEVGIYRISGVATDIQALKAVFDANNKDILLMLSDMDINAIAGTLKLYFRELPEPLLTDRLYPAFMEGIALSDPAAKENCMMHLLRSLPDPNLITFLFLLEHLKRVAEKEPINKMSLHNLATVFGPTLLRPSEVESKAHLTSAADIWSHDVMAQVQVLLYYLQHPPISFAELKRNTLYFSTDV
binding [1]: no binding | binding [2]: no binding

B3: HA-tagged full-length (FL) human ABR (protein, UniProt Q12979 1-859)
chain: B2 chain
binding [3]: no binding | binding [2]: no binding
